# These are yes or no findings as the source states them, for the method shown. Binding seen in cells or lysates may run through a third protein. Here binding means that the protein was enriched with, or labelled near, the bait; the list need not be complete. For some assays here: No binding means not detected with the bait. Where a sequence is shown, tags or fusion partners need not be part of it.
# Amino acid sequences for entries named in this document (tags omitted).
# UniProt P17096: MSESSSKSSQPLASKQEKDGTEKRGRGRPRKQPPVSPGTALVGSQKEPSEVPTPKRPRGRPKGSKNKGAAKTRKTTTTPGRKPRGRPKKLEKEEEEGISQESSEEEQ
# UniProt Q92922: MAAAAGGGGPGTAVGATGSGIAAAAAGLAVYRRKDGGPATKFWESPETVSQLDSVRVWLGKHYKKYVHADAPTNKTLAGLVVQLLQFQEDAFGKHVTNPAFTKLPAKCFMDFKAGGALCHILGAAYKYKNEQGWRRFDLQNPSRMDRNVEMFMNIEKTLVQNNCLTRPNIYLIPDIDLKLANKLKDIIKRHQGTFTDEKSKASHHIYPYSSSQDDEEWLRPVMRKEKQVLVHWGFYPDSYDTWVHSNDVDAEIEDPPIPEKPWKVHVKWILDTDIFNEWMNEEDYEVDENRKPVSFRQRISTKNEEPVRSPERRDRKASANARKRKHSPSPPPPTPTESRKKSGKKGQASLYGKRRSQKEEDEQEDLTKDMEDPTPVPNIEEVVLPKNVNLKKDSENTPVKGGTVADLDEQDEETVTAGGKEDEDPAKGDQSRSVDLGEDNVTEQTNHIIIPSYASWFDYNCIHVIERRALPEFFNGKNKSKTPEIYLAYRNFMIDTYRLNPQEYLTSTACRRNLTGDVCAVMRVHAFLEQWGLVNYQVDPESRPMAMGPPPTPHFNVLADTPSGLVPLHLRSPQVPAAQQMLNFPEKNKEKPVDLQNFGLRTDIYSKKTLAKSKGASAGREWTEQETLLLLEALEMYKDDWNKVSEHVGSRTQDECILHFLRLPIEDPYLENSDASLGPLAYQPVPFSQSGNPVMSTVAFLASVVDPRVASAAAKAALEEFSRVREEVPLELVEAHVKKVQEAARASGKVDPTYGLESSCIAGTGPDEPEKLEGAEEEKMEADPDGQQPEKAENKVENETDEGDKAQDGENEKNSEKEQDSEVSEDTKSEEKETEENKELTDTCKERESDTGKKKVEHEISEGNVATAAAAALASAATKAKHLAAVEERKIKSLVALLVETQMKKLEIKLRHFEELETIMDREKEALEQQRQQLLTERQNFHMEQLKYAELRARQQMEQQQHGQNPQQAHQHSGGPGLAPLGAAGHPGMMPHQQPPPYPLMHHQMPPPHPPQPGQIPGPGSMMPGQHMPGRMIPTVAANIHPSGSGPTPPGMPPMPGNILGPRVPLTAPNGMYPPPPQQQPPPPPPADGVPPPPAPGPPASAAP
# UniProt P51532: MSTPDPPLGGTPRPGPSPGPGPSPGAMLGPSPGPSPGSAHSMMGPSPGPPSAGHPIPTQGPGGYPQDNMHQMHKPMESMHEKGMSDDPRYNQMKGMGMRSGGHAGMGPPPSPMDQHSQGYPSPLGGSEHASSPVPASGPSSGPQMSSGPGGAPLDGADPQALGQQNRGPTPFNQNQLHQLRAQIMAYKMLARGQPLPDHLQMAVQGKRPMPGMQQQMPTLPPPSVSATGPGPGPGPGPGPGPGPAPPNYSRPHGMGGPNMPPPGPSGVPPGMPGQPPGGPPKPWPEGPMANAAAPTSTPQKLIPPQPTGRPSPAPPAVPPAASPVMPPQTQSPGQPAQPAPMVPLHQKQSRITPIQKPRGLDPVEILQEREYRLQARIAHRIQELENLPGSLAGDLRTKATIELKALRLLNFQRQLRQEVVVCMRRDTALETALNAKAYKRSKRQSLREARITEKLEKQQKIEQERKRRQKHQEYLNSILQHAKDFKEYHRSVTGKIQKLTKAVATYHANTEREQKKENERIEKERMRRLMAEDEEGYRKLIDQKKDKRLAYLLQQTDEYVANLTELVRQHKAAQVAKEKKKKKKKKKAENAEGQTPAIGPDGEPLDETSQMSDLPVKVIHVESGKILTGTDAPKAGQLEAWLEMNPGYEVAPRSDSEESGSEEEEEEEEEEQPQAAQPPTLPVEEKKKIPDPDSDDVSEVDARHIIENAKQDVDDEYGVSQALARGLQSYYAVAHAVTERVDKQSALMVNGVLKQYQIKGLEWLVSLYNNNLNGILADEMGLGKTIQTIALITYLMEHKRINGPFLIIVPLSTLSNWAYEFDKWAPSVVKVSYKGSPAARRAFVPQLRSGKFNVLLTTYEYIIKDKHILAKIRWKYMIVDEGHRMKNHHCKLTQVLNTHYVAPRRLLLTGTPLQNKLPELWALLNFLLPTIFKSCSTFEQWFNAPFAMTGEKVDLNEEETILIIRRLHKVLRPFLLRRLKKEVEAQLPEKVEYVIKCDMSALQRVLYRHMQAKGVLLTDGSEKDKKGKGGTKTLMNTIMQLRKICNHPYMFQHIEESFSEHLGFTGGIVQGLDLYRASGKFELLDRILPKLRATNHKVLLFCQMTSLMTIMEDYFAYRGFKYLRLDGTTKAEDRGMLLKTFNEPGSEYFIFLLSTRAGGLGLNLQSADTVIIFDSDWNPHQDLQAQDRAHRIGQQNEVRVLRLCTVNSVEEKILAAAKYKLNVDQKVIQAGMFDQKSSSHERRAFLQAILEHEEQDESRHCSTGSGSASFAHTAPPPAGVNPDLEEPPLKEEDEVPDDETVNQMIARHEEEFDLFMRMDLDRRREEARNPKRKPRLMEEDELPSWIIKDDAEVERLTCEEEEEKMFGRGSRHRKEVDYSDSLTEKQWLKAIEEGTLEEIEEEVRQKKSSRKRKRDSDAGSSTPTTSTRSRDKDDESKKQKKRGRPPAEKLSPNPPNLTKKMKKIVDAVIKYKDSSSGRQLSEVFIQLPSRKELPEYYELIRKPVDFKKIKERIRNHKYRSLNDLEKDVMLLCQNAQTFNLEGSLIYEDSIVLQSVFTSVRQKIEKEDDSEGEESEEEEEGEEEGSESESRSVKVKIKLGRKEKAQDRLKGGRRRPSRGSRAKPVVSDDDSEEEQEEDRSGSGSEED
# UniProt Q969G3: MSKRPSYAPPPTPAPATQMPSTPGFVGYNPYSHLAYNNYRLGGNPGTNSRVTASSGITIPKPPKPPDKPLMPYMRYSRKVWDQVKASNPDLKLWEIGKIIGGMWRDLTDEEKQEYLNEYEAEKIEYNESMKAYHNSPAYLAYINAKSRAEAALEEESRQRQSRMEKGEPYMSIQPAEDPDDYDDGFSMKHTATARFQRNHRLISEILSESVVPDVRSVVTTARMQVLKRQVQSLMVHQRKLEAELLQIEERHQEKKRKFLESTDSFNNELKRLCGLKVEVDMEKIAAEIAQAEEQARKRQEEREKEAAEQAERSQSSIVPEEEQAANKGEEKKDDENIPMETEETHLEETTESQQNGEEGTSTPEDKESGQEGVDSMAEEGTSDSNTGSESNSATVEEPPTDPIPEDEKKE
# UniProt Q13547: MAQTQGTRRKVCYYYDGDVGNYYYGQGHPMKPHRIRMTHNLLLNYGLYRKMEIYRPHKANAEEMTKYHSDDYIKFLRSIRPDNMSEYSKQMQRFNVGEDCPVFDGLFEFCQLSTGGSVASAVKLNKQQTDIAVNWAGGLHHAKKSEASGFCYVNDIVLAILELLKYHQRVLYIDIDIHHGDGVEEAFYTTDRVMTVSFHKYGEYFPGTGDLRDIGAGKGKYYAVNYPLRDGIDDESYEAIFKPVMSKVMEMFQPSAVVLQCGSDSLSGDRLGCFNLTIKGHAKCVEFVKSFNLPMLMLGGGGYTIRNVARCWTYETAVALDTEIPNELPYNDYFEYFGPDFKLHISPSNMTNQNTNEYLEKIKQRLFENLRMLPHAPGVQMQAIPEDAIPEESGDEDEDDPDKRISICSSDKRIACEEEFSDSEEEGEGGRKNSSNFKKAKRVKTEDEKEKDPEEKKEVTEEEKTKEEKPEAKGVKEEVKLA
# UniProt Q14839: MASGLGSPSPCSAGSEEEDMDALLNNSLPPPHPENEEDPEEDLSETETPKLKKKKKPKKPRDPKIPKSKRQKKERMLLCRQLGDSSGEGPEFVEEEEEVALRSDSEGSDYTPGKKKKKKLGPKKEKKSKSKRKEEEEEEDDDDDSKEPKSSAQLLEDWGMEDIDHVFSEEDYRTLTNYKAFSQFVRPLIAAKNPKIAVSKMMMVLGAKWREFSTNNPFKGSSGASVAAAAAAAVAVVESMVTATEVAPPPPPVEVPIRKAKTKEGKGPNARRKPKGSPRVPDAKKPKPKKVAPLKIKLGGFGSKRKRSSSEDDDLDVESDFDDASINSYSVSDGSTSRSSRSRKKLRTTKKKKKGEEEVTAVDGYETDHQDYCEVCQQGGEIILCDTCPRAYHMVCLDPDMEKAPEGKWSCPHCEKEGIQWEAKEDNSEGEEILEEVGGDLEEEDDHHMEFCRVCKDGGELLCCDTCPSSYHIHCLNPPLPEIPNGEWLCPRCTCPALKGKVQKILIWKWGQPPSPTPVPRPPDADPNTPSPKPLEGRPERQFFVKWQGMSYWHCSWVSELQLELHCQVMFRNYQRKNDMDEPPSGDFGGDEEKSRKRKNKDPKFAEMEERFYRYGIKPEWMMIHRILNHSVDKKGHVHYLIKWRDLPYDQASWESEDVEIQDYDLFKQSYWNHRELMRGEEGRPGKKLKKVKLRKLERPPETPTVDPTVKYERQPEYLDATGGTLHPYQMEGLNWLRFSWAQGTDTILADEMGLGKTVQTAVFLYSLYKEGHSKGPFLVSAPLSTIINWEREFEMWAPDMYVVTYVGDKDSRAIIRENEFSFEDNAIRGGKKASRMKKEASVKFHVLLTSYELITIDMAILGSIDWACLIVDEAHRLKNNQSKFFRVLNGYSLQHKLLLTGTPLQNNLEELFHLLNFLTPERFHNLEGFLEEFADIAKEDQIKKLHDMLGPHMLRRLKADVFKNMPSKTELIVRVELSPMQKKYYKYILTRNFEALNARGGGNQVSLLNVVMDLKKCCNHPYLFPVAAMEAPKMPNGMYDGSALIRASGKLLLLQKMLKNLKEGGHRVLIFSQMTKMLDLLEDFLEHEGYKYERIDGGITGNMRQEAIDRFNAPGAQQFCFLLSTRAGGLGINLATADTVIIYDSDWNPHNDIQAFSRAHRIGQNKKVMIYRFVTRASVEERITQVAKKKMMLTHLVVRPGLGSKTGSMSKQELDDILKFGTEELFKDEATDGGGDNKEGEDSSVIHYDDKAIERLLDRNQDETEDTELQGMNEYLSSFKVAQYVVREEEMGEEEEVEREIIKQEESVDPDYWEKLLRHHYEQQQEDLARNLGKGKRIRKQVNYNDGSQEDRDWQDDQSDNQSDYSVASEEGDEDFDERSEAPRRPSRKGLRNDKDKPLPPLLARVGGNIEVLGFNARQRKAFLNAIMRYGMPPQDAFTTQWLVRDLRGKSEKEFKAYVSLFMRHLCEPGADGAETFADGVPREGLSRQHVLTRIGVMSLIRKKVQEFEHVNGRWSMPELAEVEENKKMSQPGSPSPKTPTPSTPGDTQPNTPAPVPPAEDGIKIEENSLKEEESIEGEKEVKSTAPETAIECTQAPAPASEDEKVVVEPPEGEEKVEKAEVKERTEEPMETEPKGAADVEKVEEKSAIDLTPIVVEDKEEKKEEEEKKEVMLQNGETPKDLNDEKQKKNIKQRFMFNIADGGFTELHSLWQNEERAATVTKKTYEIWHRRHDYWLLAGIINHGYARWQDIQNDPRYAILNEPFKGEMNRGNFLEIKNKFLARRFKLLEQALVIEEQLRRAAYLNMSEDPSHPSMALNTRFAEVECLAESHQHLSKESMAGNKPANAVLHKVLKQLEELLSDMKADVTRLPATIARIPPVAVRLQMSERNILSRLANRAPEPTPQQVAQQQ
# UniProt Q9UBB5: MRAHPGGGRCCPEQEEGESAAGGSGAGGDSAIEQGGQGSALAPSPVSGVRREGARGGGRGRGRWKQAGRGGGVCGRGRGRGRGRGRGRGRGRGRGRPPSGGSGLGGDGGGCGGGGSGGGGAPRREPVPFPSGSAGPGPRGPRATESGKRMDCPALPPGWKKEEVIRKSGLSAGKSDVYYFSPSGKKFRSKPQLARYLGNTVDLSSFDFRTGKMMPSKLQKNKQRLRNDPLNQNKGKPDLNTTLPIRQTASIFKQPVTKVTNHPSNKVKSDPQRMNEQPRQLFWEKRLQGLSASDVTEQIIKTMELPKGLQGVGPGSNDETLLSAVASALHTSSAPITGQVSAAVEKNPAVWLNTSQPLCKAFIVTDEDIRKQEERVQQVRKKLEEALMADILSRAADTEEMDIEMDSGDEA
# UniProt P31943: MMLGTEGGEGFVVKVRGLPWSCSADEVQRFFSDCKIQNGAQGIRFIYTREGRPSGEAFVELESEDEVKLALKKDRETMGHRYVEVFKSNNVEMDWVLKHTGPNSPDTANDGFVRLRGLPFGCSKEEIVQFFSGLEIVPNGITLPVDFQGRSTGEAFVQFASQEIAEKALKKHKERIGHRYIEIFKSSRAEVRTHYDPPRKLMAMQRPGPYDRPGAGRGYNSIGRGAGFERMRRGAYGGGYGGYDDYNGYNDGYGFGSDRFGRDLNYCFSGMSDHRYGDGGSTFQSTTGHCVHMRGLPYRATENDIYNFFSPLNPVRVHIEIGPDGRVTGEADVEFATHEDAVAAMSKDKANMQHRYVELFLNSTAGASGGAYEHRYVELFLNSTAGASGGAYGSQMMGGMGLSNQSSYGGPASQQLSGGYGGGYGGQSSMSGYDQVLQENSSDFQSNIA
# T1: His-FLAG-tagged ATF2 (human (cDNA from K562 cells)) (UniProt P15336)
# T1 sequence: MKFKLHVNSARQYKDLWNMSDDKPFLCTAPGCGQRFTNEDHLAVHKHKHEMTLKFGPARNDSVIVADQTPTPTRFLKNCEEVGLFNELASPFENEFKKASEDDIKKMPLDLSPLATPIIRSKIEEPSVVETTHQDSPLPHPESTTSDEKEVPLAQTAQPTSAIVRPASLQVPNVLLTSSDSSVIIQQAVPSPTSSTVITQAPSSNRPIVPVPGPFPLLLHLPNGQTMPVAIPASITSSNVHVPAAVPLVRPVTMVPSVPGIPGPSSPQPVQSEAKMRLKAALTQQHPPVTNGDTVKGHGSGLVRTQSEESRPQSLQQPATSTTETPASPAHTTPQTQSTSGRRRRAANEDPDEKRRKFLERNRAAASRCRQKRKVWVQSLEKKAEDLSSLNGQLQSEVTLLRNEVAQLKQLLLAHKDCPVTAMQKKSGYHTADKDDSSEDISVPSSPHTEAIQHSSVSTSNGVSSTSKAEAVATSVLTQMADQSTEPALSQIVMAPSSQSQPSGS
# T2: His-FLAG-tagged ATF2 (human (cDNA from K562 cells)), P15336
# T2 chain: T1 sequence
# B1: HMGB2 (protein, UniProt P26583 1-209)
# chain: MGKGDPNKPRGKMSSYAFFVQTCREEHKKKHPDSSVNFAEFSKKCSERWKTMSAKEKSKFEDMAKSDKARYDREMKNYVPPKGDKKGKKKDPNAPKRPPSAFFLFCSEHRPKIKSEHPGLSIGDTAKKLGEMWSEQSAKDKQPYEQKAAKLKEKYEKDIAAYRAKGKSEAGKKGPGRPTGSKKKNEPEDEEEEEEEEDEDEEEEDEDEE
# B2: HMGB3 (protein, UniProt O15347 1-200)
# chain: MAKGDPKKPKGKMSAYAFFVQTCREEHKKKNPEVPVNFAEFSKKCSERWKTMSGKEKSKFDEMAKADKVRYDREMKDYGPAKGGKKKKDPNAPKRPPSGFFLFCSEFRPKIKSTNPGISIGDVAKKLGEMWNNLNDSEKQPYITKAAKLKEKYEKDVADYKSKGKFDGAKGPAKVARKKVEEEDEEEEEEEEEEEEEEDE
# B3: CCT2 (protein, UniProt P78371 1-535)
# chain: MASLSLAPVNIFKAGADEERAETARLTSFIGAIAIGDLVKSTLGPKGMDKILLSSGRDASLMVTNDGATILKNIGVDNPAAKVLVDMSRVQDDEVGDGTTSVTVLAAELLREAESLIAKKIHPQTIIAGWREATKAAREALLSSAVDHGSDEVKFRQDLMNIAGTTLSSKLLTHHKDHFTKLAVEAVLRLKGSGNLEAIHIIKKLGGSLADSYLDEGFLLDKKIGVNQPKRIENAKILIANTGMDTDKIKIFGSRVRVDSTAKVAEIEHAEKEKMKEKVERILKHGINCFINRQLIYNYPEQLFGAAGVMAIEHADFAGVERLALVTGGEIASTFDHPELVKLGSCKLIEEVMIGEDKLIHFSGVALGEACTIVLRGATQQILDEAERSLHDALCVLAQTVKDSRTVYGGGCSEMLMAHAVTQLANRTPGKEAVAMESYAKALRMLPTIIADNAGYDSADLVAQLRAAHSEGNTTAGLDMREGTIGDMAILGITESFQVKRQVLLSAAEAAEVILRVDNIIKAAPRKRVPDHHPC
# B4: hnRNP L (protein, UniProt P14866 1-589)
# chain: MSRRLLPRAEKRRRRLEQRQQPDEQRRRSGAMVKMAAAGGGGGGGRYYGGGSEGGRAPKRLKTDNAGDQHGGGGGGGGGAGAAGGGGGGENYDDPHKTPASPVVHIRGLIDGVVEADLVEALQEFGPISYVVVMPKKRQALVEFEDVLGACNAVNYAADNQIYIAGHPAFVNYSTSQKISRPGDSDDSRSVNSVLLFTILNPIYSITTDVLYTICNPCGPVQRIVIFRKNGVQAMVEFDSVQSAQRAKASLNGADIYSGCCTLKIEYAKPTRLNVFKNDQDTWDYTNPNLSGQGDPGSNPNKRQRQPPLLGDHPAEYGGPHGGYHSHYHDEGYGPPPPHYEGRRMGPPVGGHRRGPSRYGPQYGHPPPPPPPPEYGPHADSPVLMVYGLDQSKMNCDRVFNVFCLYGNVEKVKFMKSKPGAAMVEMADGYAVDRAITHLNNNFMFGQKLNVCVSKQPAIMPGQSYGLEDGSCSYKDFSESRNNRFSTPEQAAKNRIQHPSNVLHFFNAPLEVTEENFFEICDELGVKRPSSVKVFSGKSERSSSGLLEWESKSDALETLGFLNHYQMKNPNGPYPYTLKLCFSTAQHAS
# B5: hnRNP M (protein, UniProt P52272 1-730)
# chain: MAAGVEAAAEVAATEIKMEEESGAPGVPSGNGAPGPKGEGERPAQNEKRKEKNIKRGGNRFEPYANPTKRYRAFITNIPFDVKWQSLKDLVKEKVGEVTYVELLMDAEGKSRGCAVVEFKMEESMKKAAEVLNKHSLSGRPLKVKEDPDGEHARRAMQKVMATTGGMGMGPGGPGMITIPPSILNNPNIPNEIIHALQAGRLGSTVFVANLDYKVGWKKLKEVFSMAGVVVRADILEDKDGKSRGIGTVTFEQSIEAVQAISMFNGQLLFDRPMHVKMDERALPKGDFFPPERPQQLPHGLGGIGMGLGPGGQPIDANHLNKGIGMGNIGPAGMGMEGIGFGINKMGGMEGPFGGGMENMGRFGSGMNMGRINEILSNALKRGEIIAKQGGGGGGGSVPGIERMGPGIDRLGGAGMERMGAGLGHGMDRVGSEIERMGLVMDRMGSVERMGSGIERMGPLGLDHMASSIERMGQTMERIGSGVERMGAGMGFGLERMAAPIDRVGQTIERMGSGVERMGPAIERMGLSMERMVPAGMGAGLERMGPVMDRMATGLERMGANNLERMGLERMGANSLERMGLERMGANSLERMGPAMGPALGAGIERMGLAMGGGGGASFDRAIEMERGNFGGSFAGSFGGAGGHAPGVARKACQIFVRNLPFDFTWKMLKDKFNECGHVLYADIKMENGKSKGCGVVKFESPEVAERACRMMNGMKLSGREIDVRIDRNA
# B6: cJun, P05412 1-331 (protein)
# chain: MTAKMETTFYDDALNASFLPSESGPYGYSNPKILKQSMTLNLADPVGSLKPHLRAKNSDLLTSPDVGLLKLASPELERLIIQSSNGHITTTPTPTQFLCPKNVTDEQEGFAEGFVRALAELHSQNTLPSVTSAAQPVNGAGMVAPAVASVAGGSGSGGFSASLHSEPPVYANLSNFNPGALSSGGGAPSYGAAGLAFPAQPQQQQQPPHHLPQQMPVQHPRLQALKEEPQTVPEMPGETPPLSPIDMESQERIKAERKRMRNRIAASKCRKRKLERIARLEEKVKTLKAQNSELASTANMLREQVAQLKQKVMNHVNSGCQLMLTQQLQTF
# Target: T1, His-FLAG-tagged ATF2 (human (cDNA from K562 cells))
# Assay: affinity purification with mass spectrometry; nuclear extract of K562 cells stably expressing His-FLAG-ATF2, untreated or treated with 2 mM NaB; heparin sepharose (0.6 M NaCl eluate), HisTALON (imidazole), anti-FLAG agarose (FLAG peptide), pre-clearing on mutant G-CRE agarose, G-CRE oligonucleotide column (0.4 M NaCl eluate); bands of a 10% SDS-PAGE gel by MS/MS
# Conditions: not given
row,Molecule,binding
1,HMGA1 (from UniProt P17096 1-107),binds
2,BAF155 (from UniProt Q92922 1-1105),binds
3,Brg1 (from UniProt P51532 1-1647),binds
4,HDAC2 (from UniProt Q92769 1-488),binds
5,hnRNP A/B (human (endogenous in K562)),binds
6,BAF170 (from UniProt Q8TAQ2 1-1214),binds
7,hnRNP G (from UniProt P38159 1-391),binds
8,HMGB1 (from UniProt P09429 1-215),binds
9,BAF57 (from UniProt Q969G3 1-411),binds
10,HDAC1 (from UniProt Q13547 1-482),binds
11,CHD-4 (from UniProt Q14839 1-1912),binds
12,CCT7 (from UniProt Q99832 1-543),binds
13,SNF2H (from UniProt O60264 1-1052),binds
14,CCT8 (from UniProt P50990 1-548),binds
15,Lamin-B (human (endogenous in K562)),binds
16,hnRNP R2 (human (endogenous in K562)),binds
17,MBD2 (from UniProt Q9UBB5 1-411),binds
18,CCT5 (from UniProt P48643 1-541),binds
19,hnRNP H1 (from UniProt P31943 1-449),binds
20,Lamin-C (from UniProt P02545-2 1-572),binds
21,Lamin-A (from UniProt P02545 1-646),binds
22,BRM (from UniProt P51531 1-1590),binds
23,hnRNP K (from UniProt P61978 1-463),binds

# Target: T1, His-FLAG-tagged ATF2 (human (cDNA from K562 cells))
# Assay: as above
# Conditions: not given
# Remark: another data set of the same source
row,Molecule,binding
1,B1,binds
2,B2,binds
3,B3,binds
4,B4,binds
5,B5,binds

# Target: T1, His-FLAG-tagged ATF2 (human (cDNA from K562 cells))
# Assay: affinity purification with mass spectrometry; as a1, cells treated with 2 mM NaB for 48 hours; proteins lost against untreated cells
# Conditions: not given
row,Molecule,binding
1,HDAC2 (from UniProt Q92769 1-488),no binding (only cells treated with 2 mM NaB)
2,HDAC1 (from UniProt Q13547 1-482),no binding (only cells treated with 2 mM NaB)
3,MBD2 (from UniProt Q9UBB5 1-411),no binding (only cells treated with 2 mM NaB)

# Target: T2, His-FLAG-tagged ATF2 (human (cDNA from …))
# Assay: affinity purification with mass spectrometry; nuclear extract of K562 cells stably expressing His-FLAG-ATF2, untreated or treated with 2 mM NaB; heparin sepharose (0.6 M NaCl eluate), HisTALON (imidazole), anti-FLAG agarose (FLAG peptide), pre-clearing on mutant G-CRE agarose, G-CRE oligonucleotide column (0.4 M NaCl eluate); bands of a 10% SDS-PAGE gel by MS/MS
# Conditions: remark: other sources report otherwise
row,Molecule,binding
1,B6,binds

# Source: paper PMC3819381
